# This is one part of the list. The main result of the screen is listed elsewhere. These columns were measured beside it and carry no call. Most of these compounds were active or inconclusive in the main read-out, so they are no random draw. Potencies come from curve fits of mixed quality, noted in brackets.
# Assay: qHTS Assay for Modulators of Lamin A Splicing
# Conditions: HeLa LMNA splicing GFP/RFP minigene ratio, 48 h
# In short: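 S3 HeLa cells stably expressing lamin A-EGFP splicing minigene plus DsRed2, 600 cells/well, 48 h compound exposure at 37C. Laser-scanning cytometry; analysed as GFP (500-530 nm)/RFP (575-640 nm) total intensity ratio; 0.5% DMSO vehicle.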
# [1] = measured here: GFP splicing reporter channel
# [2] = measured here: RFP viability control channel
Structure (SMILES),AC50 [1],AC50 [2]
COc1ccc(S(=O)(=O)N2CCCN(S(=O)(=O)c3ccc(OC)c(C)c3)CC2)cc1C,"35.5 µM [falling, single point]","12.6 µM [rising, partial curve]"
Cc1cc(/C=C2/SC(=S)N(c3ccc([N+](=O)[O-])cc3)C2=O)c(C)n1-c1cccnc1,–,"1.26 µM [rising, full curve]"
O=[N+]([O-])c1ccc(Sc2cccc3cccnc23)cc1,"12.6 µM [rising, single point]","14.1 µM [rising, single point]"
CCCCN(CC)c1nc(-c2ccccc2F)nc2ccccc12,–,"14.1 µM [rising, single point]"
O=C(COC(=O)CCSc1ccccc1)NCc1ccccc1Cl,"0.0631 µM [falling, full curve, poor fit]","0.0398 µM [falling, full curve, poor fit]"
CCN(CC)C(=O)c1ccc(S(=O)(=O)N2CCC(c3nc4ccccc4s3)CC2)cc1,–,"3.16 µM [rising, full curve]"
Cc1ccc(S(=O)(=O)CC#CCOC(=O)c2ccc([N+](=O)[O-])cc2)cc1,"35.5 µM [falling, single point]","35.5 µM [falling, single point]"
Cc1ccc(OCCn2cc(/C(N)=N/O)c3ccccc32)cc1C,"14.1 µM [rising, partial curve, poor fit]","15.8 µM [rising, partial curve]"
CC1(c2ccccn2)Nc2ccccc2-c2nc3ccccc3n21 (configuration not stated),–,"14.1 µM [rising, single point]"
Cc1nn(Cc2ccc(Cl)c(Cl)c2)c(C)c1NC(=O)c1sc2ccccc2c1Cl,"12.6 µM [rising, partial curve, poor fit]","11.2 µM [rising, partial curve, poor fit]"
COc1cc(C(=O)ON=C2C=C(C)C(=O)C(C)=C2)cc(OC)c1OC,"35.5 µM [falling, single point]","35.5 µM [falling, single point]"
Cc1nc2ccc(NC(=O)c3ccc(S(=O)(=O)N(C)c4ccccc4)cc3)cc2s1,"1.41 µM [rising, full curve, poor fit]","2 µM [rising, full curve]"
COc1ccc(O[C@H]2C=C[C@@H](c3ccccc3)O[C@@H]2COC(=O)CC/C(C)=N/O[C@@H](C)c2cn([C@H](CO)Cc3ccccc3)nn2)cc1,"10 µM [rising, partial curve]","14.1 µM [rising, partial curve]"

# Reference: PubChem BioAssay AID1487 (National Center for Advancing Translational Sciences (NCATS), 2009)
